# According to PubChem BioAssay AID1347423 (Functional Genomics Laboratory (NCATS/FGL), 2020):
# Out of some 52,000 sequences screened, about 210 (0.4%) were called active.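 How the source made its calls: active means gene whose silencing raises cell survival under the drug, median off-target-corrected z-score across its silencing RNAs 2 or more; inactive means the rest.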 The list shows a part of the results.
# Test: Resistance to Poly (ADP-Ribose) Polymerase inhibitor: Gene Identification via Genome-wide siRNA Screen
# Details: mouse BRCA2 R2336H ES cells, olaparib, CellTiter-Glo viability; stronger effect = higher value
# How it was run: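 Mouse BRCA2 R2336H ES cells were reverse-transfected with siRNA (20 nM final), treated at 48 h with 500 nM olaparib, and read by CellTiter-Glo after 72 h. Scores: MAD-based z per siRNA, median per gene, seed off-target correction.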
row,Sequence,z-score
1,GGACCGACUUCGUCUCACUTT against 4931419P11Rik,inactive: 2.98
2,GGAGAUGACUGAUUUGAAGTT against Ccnb3,inactive: 0.835
3,UGAUGAUGGGUGUGGUUGUTT against Olfr887,inactive: -1.26
4,GCAUCGACAACCUCUCUAGTT against Hba-x,inactive: 2.62
5,GGUAACUUCAGUCUUGUUATT against BC031575,inactive: -0.358
6,GGAUAAGUACACGCUUCCCTT against Sox2,inactive: 0.69
7,GGUCAUCGAUCACAUUGAUTT against Thbs4,inactive: 0.201
8,GGUCAAUCAUUUCUAUGUUTT against Pdcd6,inactive: 0.354
9,GGUUUUCCGGACCAAAAUUTT against Rasa3,inactive: 1.21
10,GGGAGUAAAGAAAAUGUUATT against Sca2,inactive: 0.383
11,GCAUGAGUUAGACCAUAAUTT against Phf12,inactive: 0.679
12,GGAAGUGUUGGCUAUUUUUTT against Kctd10,inactive: 1.35
13,GGAGGAGUGUUGUAUCUGCTT against Rnf141,inactive: 0.37
14,GGGCUUUGAGAGCAUCUUATT against Card15,inactive: 1.08
15,GGUCUCUCGGACUUUUUCCTT against Adipor1,inactive: 2.71
16,GGCUGAUGCAGACAGUUUCTT against Brap,inactive: -0.807
17,GGAUAACCCUGUAAUGAUATT against Dctn4,inactive: -0.983
18,GGAGGACAAGGAGGAUGACTT against Samd10,inactive: -1.53
19,GGACCUUUGUUGUCAGUCATT against Zfp319,inactive: -0.856
20,GGUUAUUCAGCUCCUUAAATT against Paxip1,inactive: -1.08
21,GGAAUUCACAGAUACCGUGTT against Guca1a,inactive: -0.248
22,GGUCGAUUUGUCCUUGUGCTT against 2400009B11Rik,inactive: -0.772
23,GGAGAAUGGCCACGUAAAATT against Marcks,inactive: -0.285
24,CCGAGUUCCUUCAACAUGCTT against Hoxb7,inactive: -0.447
25,CGAUCCCUGUCUGUUGGAUTT against 9230105I15Rik,inactive: 0.387
26,UUGAAAAGUUCGGAACUGATT against Gm253,inactive: -0.318

# Fetched one by one from above (three):
row,Sequence,z-score
21,GGAAUUCACAGAUACCGUGTT against Guca1a,inactive: -0.248
7,GGUCAUCGAUCACAUUGAUTT against Thbs4,inactive: 0.201
5,GGUAACUUCAGUCUUGUUATT against BC031575,inactive: -0.358

# (listing goes on)

row,Sequence,z-score
1,GGAUGACCAACAUUUUACATT against Ptprf,inactive: 0.406
2,GCCAAUCUGAACUUGUGUUTT against 1600029D21Rik,inactive: -0.0458
3,GGGACAUCCGGAAUAUUUGTT against Endogl1,inactive: 0.322
4,GGGAAUUUGCUCCUGAAGGTT against Pcdhb8,inactive: 0.373
5,GGUCAUUUUGGGAUAUCAGTT against Lman1,inactive: 2.5
6,GGCCAGCAAAACAAAUGACTT against Slc34a2,inactive: -0.153
7,GGUUGGAAUGCACACGAAATT against Tmem34,inactive: -0.444
8,GGUUUAACUUUAAUGAUGGTT against Cacna1e,inactive: -0.729
9,GGAAAGUGUCACCAAGUUCTT against B230359F08Rik,inactive: -0.0496
10,GCAGGUGGUUAUCAACUGUTT against Vasp,inactive: 0.301
11,GGUCACCACUCCAUAUUCUTT against 4632428N05Rik,inactive: 0.514
12,GGGACACGAUGAGGAGUCATT against 1810043G02Rik,inactive: -0.202
13,GCAGGUGAAAUAAAGAAGGTT against 4930550B20Rik,inactive: -0.129
14,CCACCAUGUAUCUUUGAGUTT against 1700123O20Rik,inactive: 0.978
15,CGGAACAAAUGUCUUGGGCTT against Kcnrg,inactive: -0.207
16,GGACUAAAAAAAGUAGUGUTT against Abca5,inactive: -0.0767
17,GGAGGGUGUCAUUUUGCCATT against Slc8a3,inactive: -1.15
18,CCACUUAUAUUUGAUCUCATT against 4921524P20Rik,inactive: -2.26
19,GCCUGAAUUCCACUACUCGTT against Def8,inactive: -0.111
20,CCGUAAUUGAUUCUUUACUTT against Kif3a,active: 2.25
21,GGUGUGAGCUAUGUGUACATT against V1rd2,inactive: -1.42
22,GGAUCAUUAGAUAAGUCAATT against Xpo4,inactive: 0.886
23,CCCUUCGAUAACCAGAUCCTT against Utf1,inactive: 0.94
24,GGUCGAUUGAAGUGGAAAATT against Sh3kbp1,inactive: 1.08
25,GGAGCAGUUUGAACGAAUCTT against Aldh1b1,inactive: 0.189
26,CCCAUGUCGUGACAUCACATT against Slc26a7,inactive: -0.518

row,Sequence,z-score
1,GCUGUGAUAGUCAAAAAACTT against Gm1960,inactive: 1.16
2,GAUUCUCCAUUGCCCAAUGTT against 2310069N01Rik,inactive: -0.037
3,GGGUAUAAGAAAACUGGCATT against Rad18,inactive: 0.00125
4,GGACAGAGUCUUCAAAACGTT against 2310010B21Rik,inactive: 0.00643
5,CCCUACUGUUAUUCAAACCTT against Rhoj,inactive: 0.319
6,GCACAUUGUCUAGUAGUAATT against Suhw4,inactive: -0.345
7,GGGAAGAAACAAAGCUUUUTT against Olfr267,inactive: -0.344
8,GCCGGAUCCUAAAGAGUCATT against 2810433K01Rik,inactive: -1.12
9,GCUAUGCAGAGGAGUAUGCTT against BC019755,inactive: 0.546
10,GGCUUGCUGAUUAAAGAUGTT against Strbp,inactive: -0.517
11,GGUUUUUGGAUUCAAAGCATT against Pten,inactive: 0.192
12,GGACACCAUAUGGUUAGCUTT against 4930427A07Rik,inactive: -3.36
13,GGCUAGCAUCACAUGACUUTT against 4930438D12Rik,inactive: -0.972
14,GGAAGAAGAAAGAUUCAAATT against Bcan,inactive: 0.264
15,GGCUAUGCAUACAUAUAAATT against Slc24a2,inactive: 0.00313
16,GGGAGGACAGGUUCCUUAATT against Ndufa9,inactive: -0.582
17,GGAAUUUUAACACCUUUAGTT against Twist1,inactive: -0.643
18,GCCUGAUUUUACUUAAAAGTT against E130307C13,inactive: 0.85
19,GGAAAUUGUGGACAUGAUCTT against Sult1c1,inactive: -0.561
20,GGAAGAAGAGUUCAAAGAATT against Srrm2,inactive: 2.33
21,GGCCAAGAAUGAGCCAGUATT against Lrp1,inactive: 1.57
22,GGAUACAAGAUACCAUUGATT against Slc27a2,inactive: -1.5
23,GGAGAUUGAUGAGCAUGCCTT against Rab40b,inactive: 0.456
24,GGUGGACGAUUGAAAGUGATT against Lbx2h,inactive: -0.413
25,GCAUGGACAGUUAUGUAUATT against Slc5a6,inactive: 0.33
26,GCCACUCGAUAAUGAGUGGTT against BC025546,inactive: 0.733

row,Sequence,z-score
1,GCUUCCAGUCAGUGGUUACTT against Rara,inactive: -0.607
2,GGAAAAAGCAAUCAGACACTT against Pdcd7,inactive: 0.48
3,GCCUAAGAACAUGCUUUACTT against 1700023B02Rik,inactive: -0.159
4,CUUGGUGACAGACAAUGUCTT against H2-D1,inactive: 0.399
5,GGAAUUUAAAUUAUCCCUGTT against 1110033F04Rik,inactive: -0.984
6,CGUGAUGCUGUAAAUAGUUTT against AI606181,inactive: 0.28
7,GGUACCAUCAGAACCUGUCTT against Pop5,inactive: -0.14
8,GGUGCAUCACUUCAUGGAATT against Timm8b,inactive: 1.58
9,GGUCUUGGGUAUUGUCGUGTT against Gpr56,inactive: 0.00956
10,CCAGCAUUAUCCAUAUCAATT against Nat2,inactive: -0.0274
11,CCAGAUUGUUGUGGAAGUATT against Zfy1,inactive: -0.754
12,CGUCUAGGAAGGAAACAGGTT against Stk32a,inactive: -0.987
13,GGUCUUUGCUGUGCACUUUTT against Olfr1214,inactive: -0.904
14,CCCAGUGACUAAUGGAUAUTT against Dsg1b,inactive: 0.217
15,GGGACUUCUGAUUAAAUUUTT against A030013N09Rik,inactive: 0.164
16,GGCGAAAUGGUAAACCGAGTT against Gpr64,inactive: 1.75
17,GGCUCUAUGUCUUUGGAGGTT against Klhdc1,inactive: 0.309
18,GGUGGUUGAGGAAUGUAAGTT against Kifap3,inactive: -1.23
19,GCAAGCCCUGGAAGAAUUATT against Cml4,inactive: 2.75
20,GGGUCACUUUAUGCAUCUUTT against B930006L02Rik,inactive: -2.05
21,GGACCUUCGUGAGAAUUUCTT against Mst1,inactive: 1.38
22,GGAAGAGCGAGAGACCUUGTT against Tcf1,inactive: -0.981
23,GGAGAGUUCAGACAAGGCATT against Irx2,inactive: 1.42
24,CCUCAGUUUUGCAUAUUAUTT against BC030335,inactive: -0.364
25,CCAUUUCUUUCAGUGGCUGTT against Olfr48,inactive: 0.827
26,GCAAAUCGAUAUCAAACACTT against Slc30a1,inactive: 0.0693

# Some values from the list:
# GGGUCACUUUAUGCAUCUUTT against B930006L02Rik | z-score: inactive: -2.05
# GGUGCAUCACUUCAUGGAATT against Timm8b | z-score: inactive: 1.58
# GCAAGCCCUGGAAGAAUUATT against Cml4 | z-score: inactive: 2.75
# CCAGAUUGUUGUGGAAGUATT against Zfy1 | z-score: inactive: -0.754
